The assay deals with Toll-like receptor 4 (human (endogenous in resected brain tissue)) (UniProt O00206). In words: co-IP; Pierce Co-IP kit; anti-TLR4 antibody (10 ug/mL) immobilised on AminoLink Plus resin, incubated with tissue lysate overnight, eluate blotted for MyD88 and TLR4; FCD type II lesion and peri-FCD tissue of eight patients compared.

Chains of the proteins cited; added tags and fusions are not shown. Residues count along the entry.
UniProt O00206, residues 24-839: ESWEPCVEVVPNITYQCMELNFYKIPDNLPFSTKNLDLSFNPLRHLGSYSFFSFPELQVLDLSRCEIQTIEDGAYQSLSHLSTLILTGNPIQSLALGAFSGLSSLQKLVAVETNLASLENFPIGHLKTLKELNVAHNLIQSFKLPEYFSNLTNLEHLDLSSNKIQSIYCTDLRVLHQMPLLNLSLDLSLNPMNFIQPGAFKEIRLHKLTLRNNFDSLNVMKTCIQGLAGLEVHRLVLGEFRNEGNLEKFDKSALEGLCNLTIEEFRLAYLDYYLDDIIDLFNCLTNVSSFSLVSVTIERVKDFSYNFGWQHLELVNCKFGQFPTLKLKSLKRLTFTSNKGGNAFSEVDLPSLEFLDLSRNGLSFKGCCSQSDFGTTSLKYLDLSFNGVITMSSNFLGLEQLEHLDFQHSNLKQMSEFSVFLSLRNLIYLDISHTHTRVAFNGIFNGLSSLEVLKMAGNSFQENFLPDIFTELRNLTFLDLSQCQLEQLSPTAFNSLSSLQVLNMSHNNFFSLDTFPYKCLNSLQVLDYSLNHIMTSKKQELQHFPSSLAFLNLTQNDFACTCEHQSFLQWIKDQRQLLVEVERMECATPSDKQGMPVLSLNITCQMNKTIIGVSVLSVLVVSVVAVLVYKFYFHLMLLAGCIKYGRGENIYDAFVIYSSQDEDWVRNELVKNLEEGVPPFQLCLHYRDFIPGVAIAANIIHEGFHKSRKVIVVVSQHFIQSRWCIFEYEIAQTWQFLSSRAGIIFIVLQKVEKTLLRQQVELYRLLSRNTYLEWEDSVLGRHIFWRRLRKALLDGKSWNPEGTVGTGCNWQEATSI
UniProt Q99836: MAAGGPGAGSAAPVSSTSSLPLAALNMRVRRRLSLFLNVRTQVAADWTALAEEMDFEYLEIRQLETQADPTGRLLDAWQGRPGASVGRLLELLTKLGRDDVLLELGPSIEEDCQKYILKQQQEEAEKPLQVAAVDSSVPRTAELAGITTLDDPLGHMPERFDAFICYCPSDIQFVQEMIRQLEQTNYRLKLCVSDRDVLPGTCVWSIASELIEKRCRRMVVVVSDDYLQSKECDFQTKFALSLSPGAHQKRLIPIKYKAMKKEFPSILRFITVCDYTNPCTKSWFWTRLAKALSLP

The text below walks through data of article PMC5791174.

These are yes or no findings as the source states them, for the method shown. Binding seen in cells or lysates may run through a third protein. Some results given as binding are weak or reduced against the parent protein; the word gives no strength.

Take MyD88 (from UniProt Q99836 1-296): the binding result was “binds”.
